Source: the supplement of paper PMC10849652
This is one part of the list.

The chains behind the UniProt entries cited, without tags or fusion partners. Where a name states a change or a piece, a line headed by the entry shows the natural chain unless it says otherwise.
UniProt Q86U06: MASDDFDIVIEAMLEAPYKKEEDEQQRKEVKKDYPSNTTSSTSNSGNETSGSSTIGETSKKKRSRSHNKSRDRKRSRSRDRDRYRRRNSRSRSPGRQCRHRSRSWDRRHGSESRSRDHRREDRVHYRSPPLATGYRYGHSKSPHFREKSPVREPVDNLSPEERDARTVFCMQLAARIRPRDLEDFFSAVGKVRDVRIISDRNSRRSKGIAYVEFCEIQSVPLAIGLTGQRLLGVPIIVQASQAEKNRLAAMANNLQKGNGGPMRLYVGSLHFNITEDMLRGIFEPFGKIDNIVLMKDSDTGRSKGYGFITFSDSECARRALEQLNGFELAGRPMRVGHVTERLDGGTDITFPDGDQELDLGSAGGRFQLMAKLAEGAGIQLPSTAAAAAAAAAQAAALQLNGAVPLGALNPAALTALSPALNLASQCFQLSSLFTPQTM
UniProt Q96D70: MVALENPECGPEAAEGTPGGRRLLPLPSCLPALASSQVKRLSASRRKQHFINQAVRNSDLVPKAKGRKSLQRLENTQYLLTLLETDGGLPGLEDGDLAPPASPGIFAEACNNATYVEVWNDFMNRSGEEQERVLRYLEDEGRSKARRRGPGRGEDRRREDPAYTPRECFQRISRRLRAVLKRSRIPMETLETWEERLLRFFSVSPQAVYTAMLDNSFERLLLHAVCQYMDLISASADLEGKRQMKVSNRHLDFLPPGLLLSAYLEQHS
UniProt O15315: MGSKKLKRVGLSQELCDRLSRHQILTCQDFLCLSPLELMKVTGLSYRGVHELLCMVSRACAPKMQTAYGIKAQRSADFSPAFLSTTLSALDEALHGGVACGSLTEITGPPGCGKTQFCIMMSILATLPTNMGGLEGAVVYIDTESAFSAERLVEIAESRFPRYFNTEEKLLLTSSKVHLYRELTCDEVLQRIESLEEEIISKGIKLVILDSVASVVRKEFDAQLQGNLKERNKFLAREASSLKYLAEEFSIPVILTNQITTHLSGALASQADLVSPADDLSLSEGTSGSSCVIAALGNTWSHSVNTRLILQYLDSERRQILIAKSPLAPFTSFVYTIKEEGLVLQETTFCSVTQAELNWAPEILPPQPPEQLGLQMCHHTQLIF
UniProt P20936: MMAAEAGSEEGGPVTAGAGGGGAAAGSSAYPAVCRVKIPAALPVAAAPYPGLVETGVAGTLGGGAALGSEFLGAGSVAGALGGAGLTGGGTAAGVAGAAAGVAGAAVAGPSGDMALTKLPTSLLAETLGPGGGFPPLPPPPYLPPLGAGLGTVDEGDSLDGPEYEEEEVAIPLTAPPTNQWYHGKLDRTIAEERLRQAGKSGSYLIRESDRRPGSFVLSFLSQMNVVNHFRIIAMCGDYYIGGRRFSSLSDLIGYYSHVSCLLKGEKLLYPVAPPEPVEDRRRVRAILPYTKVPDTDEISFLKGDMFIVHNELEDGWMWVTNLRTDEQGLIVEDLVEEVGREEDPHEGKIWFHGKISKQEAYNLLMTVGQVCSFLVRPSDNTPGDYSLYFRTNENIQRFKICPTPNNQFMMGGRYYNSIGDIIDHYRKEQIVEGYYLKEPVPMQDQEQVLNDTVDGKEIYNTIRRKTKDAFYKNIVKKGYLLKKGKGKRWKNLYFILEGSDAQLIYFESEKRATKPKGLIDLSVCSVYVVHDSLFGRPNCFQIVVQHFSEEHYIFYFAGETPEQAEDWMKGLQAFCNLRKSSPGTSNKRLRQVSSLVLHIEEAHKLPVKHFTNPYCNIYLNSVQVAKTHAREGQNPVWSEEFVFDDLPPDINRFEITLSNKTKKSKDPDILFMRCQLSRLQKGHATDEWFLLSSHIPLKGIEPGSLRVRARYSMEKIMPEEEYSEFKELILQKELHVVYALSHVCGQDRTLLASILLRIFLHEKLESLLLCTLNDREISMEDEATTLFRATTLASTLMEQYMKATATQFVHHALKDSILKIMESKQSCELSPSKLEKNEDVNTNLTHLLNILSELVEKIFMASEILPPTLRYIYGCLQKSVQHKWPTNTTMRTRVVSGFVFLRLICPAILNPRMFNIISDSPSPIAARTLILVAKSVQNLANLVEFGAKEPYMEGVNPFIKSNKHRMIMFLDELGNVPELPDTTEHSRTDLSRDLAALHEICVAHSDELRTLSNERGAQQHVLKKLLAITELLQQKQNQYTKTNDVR
UniProt P49756, whole entry, looked up: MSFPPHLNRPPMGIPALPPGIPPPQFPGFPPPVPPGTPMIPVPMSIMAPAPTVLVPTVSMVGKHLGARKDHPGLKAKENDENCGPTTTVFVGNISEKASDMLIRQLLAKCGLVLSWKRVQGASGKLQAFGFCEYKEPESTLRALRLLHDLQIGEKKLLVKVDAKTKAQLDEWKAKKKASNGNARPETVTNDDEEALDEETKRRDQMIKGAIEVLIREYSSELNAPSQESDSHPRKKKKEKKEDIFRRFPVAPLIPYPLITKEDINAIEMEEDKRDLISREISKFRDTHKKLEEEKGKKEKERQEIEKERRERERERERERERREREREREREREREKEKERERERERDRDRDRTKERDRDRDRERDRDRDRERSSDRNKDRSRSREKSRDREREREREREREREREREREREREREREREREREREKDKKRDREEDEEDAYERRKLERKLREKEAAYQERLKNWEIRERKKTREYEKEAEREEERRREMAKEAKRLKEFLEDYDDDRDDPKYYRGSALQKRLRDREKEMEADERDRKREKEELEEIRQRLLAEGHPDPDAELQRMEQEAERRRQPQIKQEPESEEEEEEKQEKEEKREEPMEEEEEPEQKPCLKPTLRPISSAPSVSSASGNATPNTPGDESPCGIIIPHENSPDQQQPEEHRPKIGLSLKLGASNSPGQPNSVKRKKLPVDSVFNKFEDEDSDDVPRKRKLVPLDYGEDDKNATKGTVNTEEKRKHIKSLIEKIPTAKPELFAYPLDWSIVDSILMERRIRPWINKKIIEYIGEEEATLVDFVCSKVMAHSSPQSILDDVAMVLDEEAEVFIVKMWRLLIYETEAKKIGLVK
UniProt Q15283: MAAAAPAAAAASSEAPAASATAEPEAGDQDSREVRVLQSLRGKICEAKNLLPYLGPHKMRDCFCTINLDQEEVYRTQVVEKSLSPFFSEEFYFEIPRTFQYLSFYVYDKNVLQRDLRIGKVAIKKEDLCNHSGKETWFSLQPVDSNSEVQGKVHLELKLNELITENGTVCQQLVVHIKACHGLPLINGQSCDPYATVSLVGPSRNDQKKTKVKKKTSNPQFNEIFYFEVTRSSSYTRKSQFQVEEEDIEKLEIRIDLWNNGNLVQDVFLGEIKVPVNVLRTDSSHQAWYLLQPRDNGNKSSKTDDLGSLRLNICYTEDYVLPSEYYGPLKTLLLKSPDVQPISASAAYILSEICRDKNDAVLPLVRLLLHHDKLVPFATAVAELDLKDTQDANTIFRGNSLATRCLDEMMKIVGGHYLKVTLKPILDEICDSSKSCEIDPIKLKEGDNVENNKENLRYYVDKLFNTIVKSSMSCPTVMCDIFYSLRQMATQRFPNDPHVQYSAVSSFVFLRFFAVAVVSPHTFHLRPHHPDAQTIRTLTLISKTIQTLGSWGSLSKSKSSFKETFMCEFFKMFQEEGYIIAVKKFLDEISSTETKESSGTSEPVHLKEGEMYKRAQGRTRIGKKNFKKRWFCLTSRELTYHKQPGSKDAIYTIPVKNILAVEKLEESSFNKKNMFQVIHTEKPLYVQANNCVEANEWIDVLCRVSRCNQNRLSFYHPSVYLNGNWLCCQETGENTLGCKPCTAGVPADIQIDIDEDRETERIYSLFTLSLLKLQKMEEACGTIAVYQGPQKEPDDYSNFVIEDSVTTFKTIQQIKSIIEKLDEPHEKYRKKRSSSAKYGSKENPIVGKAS
UniProt Q9UI14, whole entry, looked up: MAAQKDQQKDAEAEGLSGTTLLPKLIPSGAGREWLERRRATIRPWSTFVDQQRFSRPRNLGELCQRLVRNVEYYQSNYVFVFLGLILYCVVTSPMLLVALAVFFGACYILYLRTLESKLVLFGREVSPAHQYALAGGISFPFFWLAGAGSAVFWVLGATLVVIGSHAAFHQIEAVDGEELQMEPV

What was measured:
Experiment in all cases: log2 fold change, soluble protein after heating vs DMSO (PISA); higher = thermal stabilisation; K562 cells, 10 uM, 30 min; active = over 0.2 and 3.5 SD of the protein, either way, in both replicates (recomputed)
[1] = compound: C1=CC=C(C=C1)[C@H](COC2=CC3=C(C=C2)NC(=O)N3)NC(=O)C4=CC=CN(C4=O)CC5=CC(=C(C=C5)F)F
In short: (§1)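 For each measurement, 10 μM compound was applied for 30 min to K562 cells at 2×10^6 cells/mL. Aliquots were heated for 3 min across 48°C-58°C, pooled, and extracted in PBS with 0.5% NP-40 at 4°C; the supernatant after 21,000xg for 90 min was soluble protein. This was quantified by TMTpro 16plex LC-MS/MS with channel sums equalised, and thermal stability was reported relative to control samples from duplicates, on a log2 fold-change scale.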

[2] = compound: CC1=C(SC2=C1C(=N[C@H](C3=NN=C(N32)C)CC(=O)N)C4=CC=C(C=C4)Cl)C
In short: as §1

[3] = compound: CC1=C2C(=CC=C1)N=C(N(C2=O)C3=CC=CC=C3C)CN4C=NC5=C(N=CN=C54)N
In short: as §1

[4] = compound: c1ccc([C@@H]2C[C@H]2NC2CCNCC2)cc1
In short: as §1

[5] = compound: Cc1sc2c(c1C)C(c1ccc(Cl)cc1)=N[C@@H](CC(=O)OC(C)(C)C)c1nnc(C)n1-2
In short: as §1

Measured: log2 fold change

RBM23 (UniProt Q86U06)
inactive: [1] -0.199 | [2] 0 | [3] 0.211 | [4] 0.315

R3HDM4 (UniProt Q96D70)
inactive: [1] -0.107 | [3] -0.194 | [5] 0.089

RAB28 (UniProt P51157)
inactive: [2] -0.013 | [3] 0.044 | [4] 0.057

RAD51B (UniProt O15315)
inactive: [1] -0.138 | [2] 0.228 | [5] 0.035 | [4] 0.111

RASA1 (UniProt P20936)
inactive: [2] -0.074 | [3] 0.187 | [5] 0.073 | [4] -0.103

RABGAP1L isoform 5 (UniProt Q5R372)
inactive: [1] 0.027 | [2] 0.027 | [5] 0.113 | [4] 0.066

RBM25 (UniProt P49756)
inactive: [1] -0.025 | [2] 0 | [3] 0.005 | [5] 0.051 | [4] 0.112

Two consecutive records already listed, quoted:
RABGAP1L isoform 5 (UniProt Q5R372)
inactive: [1] 0.027 | [2] 0.027 | [5] 0.113 | [4] 0.066

RBM25 (UniProt P49756)
inactive: [1] -0.025 | [2] 0 | [3] 0.005 | [5] 0.051 | [4] 0.112

Additional records:

RASA2 (UniProt Q15283)
inactive: [1] -0.238 | [2] -0.006 | [3] 0.311 | [4] 0.158

RABAC1 (UniProt Q9UI14)
inactive: [1] 0.077 | [3] 0.139 | [5] -0.02
